Test results reported in PMC2780926.
Construct, isoform or probe ends are uncertain for at least one entry. Results from cells or extracts need not show a direct contact. Where a protein sequence is shown, tags need not be part of it.

Molecular target: T1, ZBED6 (endogenous) (Mus musculus (C2C12 myoblasts)) (UniProt D2EAC2)
T1 sequence (looked up, limits assumed): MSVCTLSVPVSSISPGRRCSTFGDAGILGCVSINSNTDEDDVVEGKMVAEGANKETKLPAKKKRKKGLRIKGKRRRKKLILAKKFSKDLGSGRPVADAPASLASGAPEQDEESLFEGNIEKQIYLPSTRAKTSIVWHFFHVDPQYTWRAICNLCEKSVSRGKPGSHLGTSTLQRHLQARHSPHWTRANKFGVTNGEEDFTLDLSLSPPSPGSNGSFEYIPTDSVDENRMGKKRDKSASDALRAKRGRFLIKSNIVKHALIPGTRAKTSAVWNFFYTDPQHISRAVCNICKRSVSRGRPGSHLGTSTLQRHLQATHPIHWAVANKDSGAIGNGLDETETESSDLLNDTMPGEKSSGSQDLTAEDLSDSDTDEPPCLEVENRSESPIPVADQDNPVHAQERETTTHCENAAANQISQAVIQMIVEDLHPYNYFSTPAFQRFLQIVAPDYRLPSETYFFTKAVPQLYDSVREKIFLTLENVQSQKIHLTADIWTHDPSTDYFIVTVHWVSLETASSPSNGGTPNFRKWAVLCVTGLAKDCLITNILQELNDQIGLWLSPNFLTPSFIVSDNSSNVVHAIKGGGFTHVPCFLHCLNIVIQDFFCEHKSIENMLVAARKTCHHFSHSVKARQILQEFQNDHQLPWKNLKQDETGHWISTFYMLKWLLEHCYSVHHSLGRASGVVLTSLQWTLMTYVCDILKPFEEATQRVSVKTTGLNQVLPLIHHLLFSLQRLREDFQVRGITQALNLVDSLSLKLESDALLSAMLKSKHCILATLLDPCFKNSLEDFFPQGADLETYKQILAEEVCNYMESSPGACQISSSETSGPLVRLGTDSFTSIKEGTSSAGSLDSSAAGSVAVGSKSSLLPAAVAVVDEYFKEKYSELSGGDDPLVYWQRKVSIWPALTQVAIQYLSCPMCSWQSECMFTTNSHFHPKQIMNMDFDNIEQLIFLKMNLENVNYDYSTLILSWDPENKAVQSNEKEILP
Experiment: pull-down with SILAC LC-MS
Conditions: poly-dI/dC competitor, pull-down: 50 mM Tris pH 8, 150 mM NaCl, 0.25 mM EDTA, 0.5 mM DTT, 0.1% Tween-20, 0.5 mg/ml BSA, 200 ug/ml poly-dI/dC, RT, protein in an extract, label: 5'-biotin on strand 1

| Sequence | binding signal (reference for 9.0-fold q/Q enrichment) (two ZBED6 peptides seen in Q sample) | binding signal (fold enrichment q over Q) (n = 2) |
| --- | --- | --- |
| GATCCTTCGCCTAGGCTCACAGCGCGGGAGCGA (double strand) [IGF2-Q capture oligonucleotide] | 1 |  |
| GATCCTTCGCCTAGGCTCGCAGCGCGGGAGCGA (double strand) [IGF2-q capture oligonucleotide] |  | 9 |
